Here are results for 68 compounds from PubChem BioAssay AID901 (National Center for Advancing Translational Sciences (NCATS), 2007).

The list shows a part of the results. These are further read-outs of the screen, such as a control signal, another cell line or another target. No call is given for them. Most of these compounds were active or inconclusive in the main read-out, so they are no random draw. Words in brackets tell the shape of the fitted curve; partial curves, single points and poor fits give uncertain potencies.

A short description of this experiment: qHTS Assay for Identifying the Cell-Membrane Permeable IMPase Inhibitors. Particulars: CHO-M1 cells, IP1 accumulation, HTRF TR-FRET ratio; measured here: donor channel 620 nm AC50. (Quantitative high-throughput screening tests each substance at several concentrations.)
The AC50 is the concentration at which the activity in the assay is half-maximal. For `CC(=O)C1=C(C)Nc2ncnn2C1c1ccccc1Cl` (stereo not drawn), the AC50 was 5.01 µM [rising, partial curve, poor fit].
Next, `CSc1ccccc1NC(=O)CSCc1ccc(Br)cc1`: 0.1 µM [falling, full curve, poor fit]; `C/C(=N\NC(=O)c1c(Br)c(C)nn1C)c1ccc(NC(=O)C(C)Oc2ccc(Cl)cc2C)cc1` (stereo not drawn): 0.01 µM [rising, full curve, poor fit]; `COc1cc(Cl)c(C)cc1NC(c1ccccc1)c1nnc(-c2ccccc2Cl)o1` (stereo not drawn): 0.0501 µM [falling, full curve, poor fit].
Next, `CSc1nnc(-c2ccc(S(=O)(=O)N3CCCC3)cc2)n1C`: 0.00355 µM [falling, full curve].
For `COCc1nnc(NS(=O)(=O)c2ccc(C)cc2)s1` the value was 5.62 µM [rising, single point]; for `Cc1ccc(C(=O)Nc2ccc(S(=O)(=O)N3CCc4ccccc43)cc2)o1`, 0.0251 µM [falling, full curve].
`COC(=O)CSc1ncnc2c1cnn2Cc1ccccc1`: the AC50 was 25.1 µM [rising, partial curve].
`CCn1c(=O)cc(SCC(=O)NCCN2CCN(Cc3ccccc3)CC2)c2ccccc21`: the AC50 is 10 µM [rising, partial curve].
For `N#Cc1c(-c2ccco2)nc(SCc2ccc(F)cc2)[nH]c1=O`, the AC50 was 3.16 µM [rising, single point].
With `CCN(CC)CCN1C(=O)C(O)=C(C(=O)c2cc3ccccc3o2)C1c1cccnc1` (stereo not drawn), the AC50 is 12.6 µM [rising, partial curve].
Next, `O=C(COC(=O)c1ccc[nH]c1=O)NCC1CCCO1` (stereo not drawn): 0.794 µM [falling, full curve]; `CCCCNC(=S)NNC(=O)c1nn(C)cc1Cl`: 10 µM [falling, single point].
Next, `COc1cccc(CN(C)C(=O)Nc2cccc(C(F)(F)F)c2)c1OC`: 0.0631 µM [rising, full curve, poor fit]; `COc1ccc(-c2nc(C)ncc2N=Nc2ccccc2)cc1`: 31.6 µM [falling, single point].
For `O=C(Cn1nnc(-c2cccc(C(F)(F)F)c2)n1)N1CCOCC1` the value was 3.16 µM [falling, partial curve].
In the case of `COc1ccc(C(=O)COC(=O)c2cc(-c3ccccc3)nc3c(C)cccc23)cc1`, the AC50 was 35.5 µM [falling, single point].
Next, `Cc1ccc(NC(=O)CSc2nc(-c3ccc(F)cc3)cc(C(F)(F)F)c2C#N)cc1`: 1.78 µM [rising, partial curve]; `O=C(COC(=O)CSc1cccc2cccc(Cl)c12)Nc1ncc(C(F)(F)F)cc1Cl`: 10 µM [rising, partial curve]; `COc1ccc(-c2c(C#N)c(SCC(=O)Nc3ccccc3C)nc(C)c2C(=O)Nc2ccccc2)cc1OC`: 31.6 µM [rising, single point].
`COC(=O)Nc1nnc(Cc2ccc(OC)cc2)s1`: the AC50 was 0.0631 µM [rising, full curve, poor fit].
For `CCN(Cc1cc2ccccc2[nH]c1=O)C(=O)C(C)C` the value was 0.0126 µM [rising, full curve, poor fit].
For `CC(C)Cc1nc2oc3c(NCc4cccnc4)ncnc3c2c2c1CCC2` the value was 0.398 µM [falling, full curve, poor fit].
Next, `CCOC(=O)c1sc(NC(=O)c2cncc(Br)c2)nc1C`: 2.51 µM [falling, partial curve].
Regarding `Cc1cnc(C(=O)Nc2cccc3ncccc23)cn1`, the AC50 was 0.398 µM [falling, full curve].
Take `OCCN1CCN(c2nc(NCc3ccco3)c3ccccc3n2)CC1`: the AC50 was 0.2 µM [rising, single point].
`CCOc1cc(C(Nc2cc(C)ccn2)c2ccc3cccnc3c2O)ccc1OC` (stereo not drawn): the AC50 was 2.51 µM [falling, single point].
For `Cc1ccc(Cn2nnc3c(=O)n(Cc4ccccc4C)cnc32)cc1` the value was 5.62 µM [rising, single point].
As for `O=C(Cn1cnc2ccccc2c1=O)c1c[nH]c2ccccc12`, the AC50 was 6.31 µM [falling, full curve, poor fit].
For `Cc1noc(NS(=O)(=O)c2ccc(NC(=O)COc3ccccc3)cc2)c1C` the value was 3.55 µM [rising, single point].
Next, `CCOC(=O)C1=C(C)NC(C)=C(C(=O)OCC)C1C1=COCCO1`: 0.0501 µM [rising, partial curve, poor fit].
For `COc1cc(NS(=O)(=O)c2ccc(Br)cc2)c(OC)cc1NC(=O)c1ccco1` the value was 3.98 µM [falling, full curve, poor fit]; for `Clc1ccc(CSc2ncn(-c3ccccc3)n2)cc1`, 3.98 µM [rising, partial curve]; for `Cc1nn(C)c(C)c1/C=N/N=C1\CCC2C3CCc4cc(O)ccc4C3CCC12C` (stereo not drawn), 1 µM [falling, full curve, poor fit].
`CCCc1nc(N2CCCC2)c(C#N)c2c1CCCC2`: the AC50 was 1 µM [falling, full curve, poor fit].
Next, `CCn1c(-c2nn(C)c(C)c2Cl)n[nH]c1=S`: 0.2 µM [rising, single point].
In the case of `CCc1nc2ccccc2n1Cc1ccc(OC)c(OC)c1`, the AC50 is 31.6 µM [falling, single point].
For `O=C(Cn1cc(C(F)(F)F)ccc1=O)N1CCN(S(=O)(=O)c2ccccc2)CC1` the value was 3.98 µM [rising, single point]; for `O=C(CSc1nc(-c2ccccc2Cl)ns1)NCc1ccco1`, 0.0631 µM [rising, full curve, poor fit].
Turning to `COc1ccc(NC(=O)c2nc[nH]c2C(=O)Nc2ccccc2C)cc1`, the AC50 was 0.794 µM [rising, single point].
For `CC(=O)Nc1cc(C(C)C)c(O)c(C(C)C)c1` the value was 31.6 µM [falling, single point]; for `COc1ccc(C(=O)NCCn2cc(SCC(=O)N3CCOCC3)c3ccccc32)cc1`, 1.58 µM [falling, full curve, poor fit].
Next, `COc1ccc(C=O)cc1CSc1nnc(COc2cccc3cccnc23)o1`: 1 µM [falling, full curve].
Next, `Cc1onc(-c2ccccc2)c1C(=O)NCCN1CCOCC1`: 0.0891 µM [falling, full curve]; `Cc1cc(NC(=O)CCCC(=O)O)nc(C)n1`: 3.16 µM [rising, single point]; `COc1ccccc1NC(=O)Cn1c(=O)sc2ccccc21`: 12.6 µM [rising, single point].
`COc1ccc(-c2nc(=S)[nH][nH]2)cc1`: the AC50 was 3.98 µM [falling, full curve].
Next, `N/C(=N\OC(=O)c1ccc(Cl)cc1)c1cccnc1`: 0.794 µM [falling, full curve, poor fit]; `Cc1cccc(C)c1OCC(=O)Nc1cccc(NC(=O)c2ccco2)c1`: 0.0631 µM [falling, single point].
For `CN(C(=O)c1ccc2c(c1)OCO2)C1(C(=O)NC2CCCC2)CCCCC1` the value was 7.94 µM [rising, partial curve, poor fit].
Next, `Cc1cc2n(n1)SC(Nc1ccc(F)cc1)N2` (stereo not drawn): 22.4 µM [rising, partial curve, poor fit]; `Cc1cc(C)cc(OCC(=O)Nc2ccc(N3CCCC3)cc2)c1`: 3.16 µM [rising, partial curve, poor fit]; `CCCc1cc(Nc2cccc(OC)c2)n2ncnc2n1`: 35.5 µM [falling, single point].
Consider `COc1ccc(OC)c(-c2cc(C(=O)N3CCCc4ccccc43)no2)c1`, for which the AC50 was 0.398 µM [falling, full curve, poor fit].
Next, `C=CCn1c(N)c(S(=O)(=O)c2cccs2)c2nc3ccccc3nc21`: 0.0631 µM [falling, full curve, poor fit]; `COc1ccc2[nH]c(=O)c(COC(=O)c3ccco3)cc2c1`: 31.6 µM [rising, single point]; `CCOC(=O)c1ccc(NC(=O)CSc2nccn2C)cc1`: 31.6 µM [falling, single point].
Turning to `C(=C\c1ccccc1)/C=N/Nc1nc2ccccc2[nH]1`, the AC50 is 0.0251 µM [falling, full curve].
Take `CCc1ccc2c(c1)cc(CN(C(=S)Nc1ccccc1Cl)C1CC1)c1nnnn12`: the AC50 is 25.1 µM [rising, single point].
Next, `COc1ccc(CCN=CC2=C(O)CC(C)(C)CC2=O)cc1`: 10 µM [falling, partial curve]; `CCOC(=O)N1CCN(S(=O)(=O)c2ccc3[nH]cc(C(=O)O)c(=O)c3c2)CC1`: 2.51 µM [falling, partial curve, poor fit]; `CC(NC(=O)C1CCN(S(=O)(=O)N2CCCCCC2)CC1)c1ccccc1` (stereo not drawn): 0.794 µM [falling, full curve, poor fit].
For `Cc1ccc(N/N=C/c2c(O)cc(C)oc2=O)cc1` the value was 15.8 µM [falling, single point]; for `CC(=O)CSc1nc(C(F)(F)F)cc(=O)n1-c1ccccc1`, 1.26 µM [falling, full curve, poor fit].
Next, `Cc1ccc(C(=O)N/N=C\c2cccn2C)cn1`: 12.6 µM [falling, partial curve].
Regarding `COc1ccc(-c2nc3n(n2)C(c2ccc(OC)cc2)C(C(=O)Nc2cccnc2)=C(C)N3)cc1` (stereo not drawn), the AC50 was 20 µM [falling, single point].
For `COc1ccc(C/C(N)=N/OC(=O)Cc2ccccc2)cc1` the value was 5.01 µM [falling, single point]; for `CC(=O)SC(C)CC(=O)Nc1ccccc1` (stereo not drawn), 20 µM [falling, partial curve, poor fit].
